For 14 targets, log2 fold change results are on record in the supplement of paper PMC10849652.

Chains of the proteins cited; added tags and fusions are not shown. Lines headed by an entry give the natural chain unless they say otherwise; changes in a name come on top.
UniProt Q9H147: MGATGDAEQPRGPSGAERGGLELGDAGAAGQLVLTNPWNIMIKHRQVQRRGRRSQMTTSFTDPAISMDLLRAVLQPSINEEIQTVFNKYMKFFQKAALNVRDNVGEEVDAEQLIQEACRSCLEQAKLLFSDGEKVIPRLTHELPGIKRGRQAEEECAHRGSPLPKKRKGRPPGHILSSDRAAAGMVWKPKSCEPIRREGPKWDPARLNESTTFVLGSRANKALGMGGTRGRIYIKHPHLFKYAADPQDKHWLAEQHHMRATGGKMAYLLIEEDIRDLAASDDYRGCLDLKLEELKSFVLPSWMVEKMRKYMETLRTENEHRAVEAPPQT
UniProt P11532, whole entry, looked up: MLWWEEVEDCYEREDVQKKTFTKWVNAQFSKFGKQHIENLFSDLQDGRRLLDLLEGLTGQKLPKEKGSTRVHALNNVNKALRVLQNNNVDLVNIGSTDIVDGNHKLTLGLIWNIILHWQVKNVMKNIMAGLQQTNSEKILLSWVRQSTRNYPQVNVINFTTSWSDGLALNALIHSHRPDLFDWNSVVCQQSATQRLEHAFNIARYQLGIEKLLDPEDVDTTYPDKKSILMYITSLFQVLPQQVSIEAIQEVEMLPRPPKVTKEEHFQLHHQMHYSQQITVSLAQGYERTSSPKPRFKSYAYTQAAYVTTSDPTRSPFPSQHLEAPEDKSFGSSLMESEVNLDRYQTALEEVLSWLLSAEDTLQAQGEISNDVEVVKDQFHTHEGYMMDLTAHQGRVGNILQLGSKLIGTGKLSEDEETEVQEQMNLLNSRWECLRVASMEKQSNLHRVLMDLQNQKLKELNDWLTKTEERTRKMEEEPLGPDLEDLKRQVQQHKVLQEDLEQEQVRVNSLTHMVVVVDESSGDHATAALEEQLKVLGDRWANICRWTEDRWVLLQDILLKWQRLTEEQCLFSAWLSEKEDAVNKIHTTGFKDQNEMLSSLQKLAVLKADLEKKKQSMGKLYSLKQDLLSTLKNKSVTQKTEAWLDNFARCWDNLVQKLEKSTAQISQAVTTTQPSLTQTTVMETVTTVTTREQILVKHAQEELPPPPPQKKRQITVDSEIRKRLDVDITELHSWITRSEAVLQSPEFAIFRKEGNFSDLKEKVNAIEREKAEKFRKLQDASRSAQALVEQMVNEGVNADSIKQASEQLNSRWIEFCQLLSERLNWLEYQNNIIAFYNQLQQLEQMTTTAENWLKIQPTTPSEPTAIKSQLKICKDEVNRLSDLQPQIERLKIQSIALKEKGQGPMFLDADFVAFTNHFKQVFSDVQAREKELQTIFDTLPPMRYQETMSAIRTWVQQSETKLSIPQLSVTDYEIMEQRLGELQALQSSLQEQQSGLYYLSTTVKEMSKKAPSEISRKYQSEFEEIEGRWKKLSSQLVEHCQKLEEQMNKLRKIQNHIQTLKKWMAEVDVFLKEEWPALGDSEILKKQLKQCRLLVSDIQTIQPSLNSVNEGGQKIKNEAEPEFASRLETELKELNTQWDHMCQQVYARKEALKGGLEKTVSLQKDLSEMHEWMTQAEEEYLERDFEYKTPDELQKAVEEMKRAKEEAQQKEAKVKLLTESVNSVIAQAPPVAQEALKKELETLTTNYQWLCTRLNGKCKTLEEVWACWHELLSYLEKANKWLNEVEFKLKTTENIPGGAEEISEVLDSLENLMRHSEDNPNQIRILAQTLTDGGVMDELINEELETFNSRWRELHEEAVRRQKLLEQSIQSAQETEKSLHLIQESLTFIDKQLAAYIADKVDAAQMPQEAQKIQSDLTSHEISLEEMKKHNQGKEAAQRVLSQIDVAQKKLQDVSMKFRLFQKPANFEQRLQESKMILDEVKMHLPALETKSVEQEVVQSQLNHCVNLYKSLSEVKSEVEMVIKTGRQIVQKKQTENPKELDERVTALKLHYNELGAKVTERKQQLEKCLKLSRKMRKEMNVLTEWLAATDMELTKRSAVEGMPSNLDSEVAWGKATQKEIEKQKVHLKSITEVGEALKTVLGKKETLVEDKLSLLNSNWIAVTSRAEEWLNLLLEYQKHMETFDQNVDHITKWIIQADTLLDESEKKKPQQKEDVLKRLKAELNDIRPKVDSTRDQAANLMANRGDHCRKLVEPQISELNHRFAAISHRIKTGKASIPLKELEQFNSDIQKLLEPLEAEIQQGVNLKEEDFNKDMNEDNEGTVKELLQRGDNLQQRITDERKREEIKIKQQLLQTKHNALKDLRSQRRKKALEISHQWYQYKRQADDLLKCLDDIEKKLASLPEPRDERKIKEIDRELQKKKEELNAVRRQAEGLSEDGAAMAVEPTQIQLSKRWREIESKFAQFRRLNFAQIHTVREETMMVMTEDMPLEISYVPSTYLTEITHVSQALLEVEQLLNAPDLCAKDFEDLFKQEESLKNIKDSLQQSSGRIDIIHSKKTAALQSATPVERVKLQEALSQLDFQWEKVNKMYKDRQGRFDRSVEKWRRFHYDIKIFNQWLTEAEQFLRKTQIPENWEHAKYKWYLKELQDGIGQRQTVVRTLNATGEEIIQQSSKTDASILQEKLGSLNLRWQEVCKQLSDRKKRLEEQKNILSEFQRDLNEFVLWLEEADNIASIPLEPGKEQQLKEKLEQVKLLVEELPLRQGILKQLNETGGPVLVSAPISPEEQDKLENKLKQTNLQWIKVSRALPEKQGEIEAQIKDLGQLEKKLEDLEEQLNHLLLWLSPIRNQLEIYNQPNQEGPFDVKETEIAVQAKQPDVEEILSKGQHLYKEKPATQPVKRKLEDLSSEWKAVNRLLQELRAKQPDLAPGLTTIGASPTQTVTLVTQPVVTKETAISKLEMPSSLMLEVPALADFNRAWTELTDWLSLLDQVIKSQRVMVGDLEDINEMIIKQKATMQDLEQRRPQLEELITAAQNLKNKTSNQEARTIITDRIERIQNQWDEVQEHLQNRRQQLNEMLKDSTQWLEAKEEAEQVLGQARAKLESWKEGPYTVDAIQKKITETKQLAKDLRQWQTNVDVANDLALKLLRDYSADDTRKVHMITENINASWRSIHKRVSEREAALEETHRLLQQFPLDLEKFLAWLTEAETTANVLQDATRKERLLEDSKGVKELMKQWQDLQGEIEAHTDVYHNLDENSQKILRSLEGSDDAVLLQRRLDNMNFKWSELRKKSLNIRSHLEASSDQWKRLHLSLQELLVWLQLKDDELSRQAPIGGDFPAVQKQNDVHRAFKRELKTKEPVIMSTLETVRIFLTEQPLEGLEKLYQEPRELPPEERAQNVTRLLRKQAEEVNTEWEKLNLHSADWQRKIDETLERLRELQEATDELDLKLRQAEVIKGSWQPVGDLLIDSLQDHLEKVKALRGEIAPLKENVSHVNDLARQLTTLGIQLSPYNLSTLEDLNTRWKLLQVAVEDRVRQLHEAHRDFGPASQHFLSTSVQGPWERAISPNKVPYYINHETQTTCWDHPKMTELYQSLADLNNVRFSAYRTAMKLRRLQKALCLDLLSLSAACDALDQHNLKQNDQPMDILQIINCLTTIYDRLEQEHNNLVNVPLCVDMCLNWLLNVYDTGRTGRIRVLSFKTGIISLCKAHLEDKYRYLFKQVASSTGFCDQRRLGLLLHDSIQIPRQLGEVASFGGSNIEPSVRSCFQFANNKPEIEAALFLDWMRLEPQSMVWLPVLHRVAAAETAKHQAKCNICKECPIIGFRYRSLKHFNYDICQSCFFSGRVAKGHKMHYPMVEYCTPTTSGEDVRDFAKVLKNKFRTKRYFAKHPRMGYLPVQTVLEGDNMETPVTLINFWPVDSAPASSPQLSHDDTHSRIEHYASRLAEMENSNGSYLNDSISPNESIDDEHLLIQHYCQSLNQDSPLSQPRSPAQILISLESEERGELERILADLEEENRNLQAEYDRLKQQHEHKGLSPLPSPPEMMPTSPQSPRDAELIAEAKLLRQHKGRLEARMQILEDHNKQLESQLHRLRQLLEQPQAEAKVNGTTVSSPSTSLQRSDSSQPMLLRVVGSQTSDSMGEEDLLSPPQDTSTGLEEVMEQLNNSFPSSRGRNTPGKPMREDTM
UniProt Q6Y2X3: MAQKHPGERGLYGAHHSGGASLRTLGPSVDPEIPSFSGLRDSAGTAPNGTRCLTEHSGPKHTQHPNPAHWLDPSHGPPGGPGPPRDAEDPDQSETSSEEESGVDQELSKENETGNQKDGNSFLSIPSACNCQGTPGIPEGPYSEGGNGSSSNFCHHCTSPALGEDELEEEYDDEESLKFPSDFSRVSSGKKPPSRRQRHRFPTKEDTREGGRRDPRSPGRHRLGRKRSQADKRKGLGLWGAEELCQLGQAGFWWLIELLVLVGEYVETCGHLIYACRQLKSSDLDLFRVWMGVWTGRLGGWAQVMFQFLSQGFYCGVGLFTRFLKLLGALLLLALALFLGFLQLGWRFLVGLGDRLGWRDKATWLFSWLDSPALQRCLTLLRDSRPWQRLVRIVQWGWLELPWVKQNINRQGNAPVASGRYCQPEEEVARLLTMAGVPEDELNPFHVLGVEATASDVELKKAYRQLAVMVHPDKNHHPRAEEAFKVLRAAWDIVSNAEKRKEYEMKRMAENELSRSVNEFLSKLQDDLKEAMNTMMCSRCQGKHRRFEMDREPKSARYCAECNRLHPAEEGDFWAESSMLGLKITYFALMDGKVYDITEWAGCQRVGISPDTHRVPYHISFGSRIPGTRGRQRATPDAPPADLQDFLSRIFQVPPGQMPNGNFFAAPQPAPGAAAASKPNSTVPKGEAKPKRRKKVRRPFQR
UniProt Q7Z3D6: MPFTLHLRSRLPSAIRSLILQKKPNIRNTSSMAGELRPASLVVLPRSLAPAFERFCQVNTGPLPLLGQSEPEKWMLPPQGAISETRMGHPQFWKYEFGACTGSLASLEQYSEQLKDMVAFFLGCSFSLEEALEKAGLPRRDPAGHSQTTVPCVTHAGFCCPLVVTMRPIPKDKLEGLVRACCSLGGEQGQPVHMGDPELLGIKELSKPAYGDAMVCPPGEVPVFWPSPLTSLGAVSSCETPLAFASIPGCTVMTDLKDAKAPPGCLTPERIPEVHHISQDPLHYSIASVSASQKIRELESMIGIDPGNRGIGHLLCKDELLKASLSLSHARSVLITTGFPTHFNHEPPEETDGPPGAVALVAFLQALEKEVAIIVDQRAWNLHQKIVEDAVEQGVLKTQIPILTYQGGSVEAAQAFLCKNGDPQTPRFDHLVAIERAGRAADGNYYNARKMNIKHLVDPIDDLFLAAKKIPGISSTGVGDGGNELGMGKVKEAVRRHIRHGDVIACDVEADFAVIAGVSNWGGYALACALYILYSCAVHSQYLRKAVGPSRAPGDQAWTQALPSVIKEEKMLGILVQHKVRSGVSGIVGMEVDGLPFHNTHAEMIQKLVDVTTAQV

The list shows a part of the results.

Holding throughout (assay): log2 fold change, soluble protein after heating vs DMSO (PISA); higher = thermal stabilisation; K562 lysate, 10 uM; active = over 0.2 and 3.5 SD of the protein, either way, in both replicates (recomputed)
Compound in experiment [1]: NCC(=O)Nc1ccc(-n2nc(C(F)(F)F)cc2-c2ccc3c(ccc4ccccc43)c2)cc1
In a few lines:
(§1)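 Soluble protein was defined as the supernatant remaining after 21,000xg for 90 min, following pooling of heated aliquots and adjustment to 0.5% NP-40 at 4°C. Before that, crude K562 extract at 1 mg/mL protein in PBS pH 7.4 with 1 mM MgCl2 was treated with 10 μM compound for 30 min and heated for 3 min across 48°C-58°C. Quantification used TMTpro 16plex LC-MS/MS with channel sums equalised, and values are log-two fold changes in thermal stability relative to solvent controls from duplicates.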

Compound in a further experiment: O=C(CCCCCCC(=O)Nc1ccccc1)NO [vorinostat]
In a few lines:
as §1

Compound in a further experiment: O=C(O)c1ccc2c(c1)nc(Nc1cccc(Cl)c1)c1ccncc12 [silmitasertib]
In a few lines: as §1

Compound in the next experiment: c1cn2cc(-c3ccc4cn[nH]c4c3)nc(Nc3ccc(N4CCOCC4)cc3)c2n1 [entospletinib]
In a few lines: as §1

Compound in experiment [2]: O=C1NC(=O)C(c2cnc3ccccn23)=C1c1cn2c3c(cc(F)cc13)CN(C(=O)N1CCCCC1)CC2
In a few lines:
as §1

With DNTTIP1 (UniProt Q9H147), the log2 fold change in experiment [1] was inactive: -0.021; in the experiment with vorinostat, inactive: -0.26; with silmitasertib, inactive: 0.043; with entospletinib, inactive: -0.009.
In the case of DMXL2 isoform 3 (UniProt Q8TDJ6), the log2 fold change in experiment [1] was inactive: 0.031; with vorinostat it was inactive: -0.195; with silmitasertib, inactive: 0.086; in experiment [2], inactive: -0.01; with entospletinib, inactive: 0.
Regarding DMBT1 isoform 6 (UniProt Q9UGM3), the results for the log2 fold change (in experiment [1]; with entospletinib) were inactive: -0.165 and inactive: 0.069, respectively.
As to DNPEP (UniProt C9JBE1), the log2 fold change in experiment [1] is inactive: 0.179; in the experiment with entospletinib it was inactive: -0.088.
Take DMD isoform 14 (UniProt P11532): the log2 fold change in experiment [2] is inactive: 0.05.
As to DOP1B (UniProt Q9Y3R5), the results for the log2 fold change in experiment [1] and in experiment [2] were inactive: 0.014 and inactive: -0.06, respectively.
As to DNAJC11 (UniProt Q9NVH1), the log2 fold change is inactive: 0.002 in experiment [1]; inactive: 0.003 in the experiment with vorinostat; inactive: 0.018 with silmitasertib; inactive: -0.032 in experiment [2]; inactive: 0.029 with entospletinib.
For DNAJC14 (UniProt Q6Y2X3), in the experiment with entospletinib, the log2 fold change is inactive: -0.017.
For the target DNMT3A (UniProt Q9Y6K1), the log2 fold change with vorinostat is inactive: -0.187; in the experiment with silmitasertib, inactive: 0.148.
As to DGLUCY isoform 2 (UniProt Q7Z3D6), the log2 fold change in experiment [2] is inactive: -0.116.
As to DGKE (UniProt P52429), the log2 fold change in experiment [1] is inactive: -0.388; in the experiment with vorinostat, inactive: -0.092; in the experiment with silmitasertib, inactive: 0.189; in the experiment with entospletinib, inactive: -0.189.
As to DNAJB1 (UniProt M0R128), the log2 fold change with vorinostat is inactive: 0; with silmitasertib it was inactive: 0.203.
Consider DONSON (UniProt Q9NYP3), for which the log2 fold change was active: -0.401 with vorinostat, inactive: -0.123 with silmitasertib and inactive: 0.032 in experiment [2].
In the case of DLC1 (UniProt Q96QB1), the log2 fold change in experiment [2] was inactive: 0.161; in the experiment with entospletinib, inactive: -0.033.
